This is an account of results in US6992169B2 (Cyclacel Limited, priority 1998, dated 2006).

Strings that start with PEPTIDE1 are HELM notation: dots part the residues, brackets hold end groups and non-standard residues. [ ]: non-standard residue; d: D form. βAla = NCCC(=O)O Where only a bound is given, the exact number is not on record here.

The nature of the series: general procedure: Fmoc solid-phase peptide synthesis; Fmoc-Lys(Boc)-[(4-(hydroxymethyl)phenoxyacetyl)-resin] (ABI 401425; 0.5 mmol/g) or Rink Amide AM resin (Novabiochem); FastMoc MonPrevPk programs; PyBOP/HOBt/DIEA for manual acylations.
The mark [1] stands for this setting: conjugation step, analytical RP-HPLC, Vydac 218TP54.
Setting [2] is: whole synthesis, λ=214 nm, scale of the general procedure 0.1 mmol or 0.25 mmol.

“7-[Succinimidopropionoyl-(H-Cys-Arg-Gln-Ile-Lys-Ile-Trp-Phe-Gln-Asn-Arg-Arg-Met-Lys-Trp-Lys-Lys-OH)]paclitaxel”: under setting [1], the “final HPLC purity” value is given as “purity>97%”.

Substance “4′-[Succinimidopropionoyl-(H-Cys-Arg-Gln-Ile-Lys-Ile-Trp-Phe-Gln-Asn-Arg-Arg-Met-Lys-Trp-Lys-Lys-OH)]epipodophyllotoxin” had a conjugation yield (conjugation step) of 48%. The “final HPLC purity” value under setting [1] is given as “purity>98%”.

Consider “G2-[Succinimidopropionoyl-(H-Cys-Arg-Gln-Ile-Lys-Ile-Trp-Phe-Gln-Asn-Arg-Arg-Met-Lys-Trp-Lys-Lys-OH)]etoposide”, for which, for the setting “conjugation step”, the conjugation yield worked out at 80%. Besides, the “final HPLC purity” value under setting [1] was “purity>98%”.

Take “O-[Succinimidopropionoyl-(H-Cys-Arg-Gln-Ile-Lys-Ile-Trp-Phe-Gln-Asn-Arg-Arg-Met-Lys-Trp-Lys-Lys-OH)]roscovitine (SEQ ID No. 27)”: the “final HPLC purity” value under setting [1] is on record as “purity>98%”.

Under “conjugation step”, “4-[(Succinimidopropionoyl-Gly)-(H-Cys-bAla-Arg-Arg-Met-Lys-Trp-Lys-Lys-NH2)]podophyllotoxin (SEQ ID No. 19)” displayed a conjugation yield of 33%. Under setting [1], the “final HPLC purity” value is “purity>97%”.

Substance “PEPTIDE1{C.R.Q.[Ile_bopen].K.[Ile_bopen].W.F.Q.N.R.R.M.K.W.K.K}|CHEM1{[CH2CO-4-Podo]}$PEPTIDE1,CHEM1,1:R3-1:R1$$$V2.0” yielded a conjugation yield (conjugation step) of 59%. In addition, the “final HPLC purity” value under setting [1] is “purity>97%”.

Take “H-Cys-Arg-Gln-Ile-Lys-Ile-Trp-Phe-Gln-Asn-Arg-Arg-Met-Lys-Trp-Lys-Lys-OH”: the “final HPLC purity” value under setting [2] was “purity>99%”.

Take “O-[Succinimidopropionoyl-(H-Cys-Arg-Gln-Ile-Lys-Ile-Trp-Phe-Gln-Asn-Arg-Arg-Met-Lys-Trp-Lys-Lys-OH)]bohemine (SEQ ID No. 27)”: for the setting “conjugation step”, the conjugation yield was determined as 40%. In addition, the “final HPLC purity” value under setting [1] is reported as “purity>95%”.

As to “O-{3-[3-(Cys-Arg-Gln-Ile-Lys-Ile-Trp-Phe-Gln-Asn-Arg-Arg-Met-Lys-Trp-Lys-Lys-OH)succinimido]propionoyl}-bohemine”, the conjugation yield (conjugation step) worked out at 40%. Besides, the “final HPLC purity” value (conjugation step, λ=200-300 nm) is “purity>95%”.

Regarding “H-C[βAla][dR][dR][dM][dK][dW][dK][dK]-NH2”, under setting [2], the “final HPLC purity” value is “purity>99%”.

As for Example 1 [H-Glu-Gly-bAla]4 peptide, the “crude HPLC purity” value (whole synthesis, λ=200-300 nm, scale of the general procedure 0.1 mmol or 0.25 mmol) is over 89%.

Under “conjugation step”, “4′-[Succinimidopropionoyl-(H-Cys-Arg-Gln-Ile-Lys-Ile-Trp-Phe-Gln-Asn-Arg-Arg-Met-Lys-Trp-Lys-Lys-OH)]etoposide” had a conjugation yield of 77%. The “final HPLC purity” value under setting [1] was “purity>99%”.

Regarding “H-Cys-D-Lys-D-Lys-D-Trp-D-Lys-D-Met-D-Arg-D-Arg-D-Asn-D-Gln-D-Phe-D-Trp-D-Ile-D-Lys-D-Ile-D-Gln-D-Arg-NH2”, the “final HPLC purity” value under setting [2] was “purity>99%”.

On to “4′-Methoxy-4-[4″-aminoanilino-(succinimidopropionoyl)-(H-Cys-Arg-Gln-Ile-Lys-Ile-Trp-Phe-Gln-Asn-Arg-Arg-Met-Lys-Trp-Lys-Lys-NH2)]epipodophyllotoxin (SEQ ID No. 27)”, for which, where the note is “conjugation step”, the conjugation yield turned out to be 32%. Under setting [1], the “final HPLC purity” value is recorded as “purity>99%”.

“2′-[Succinimidopropionoyl-(H-Cys-Arg-Gln-Ile-Lys-Ile-Trp-Phe-Gln-Asn-Arg-Arg-Met-Lys-Trp-Lys-Lys-OH)]paclitaxel”: under “conjugation step”, the conjugation yield turned out to be 62%. Besides, the “final HPLC purity” value under setting [1] is “purity>97%”.

“N-{3-[3-(H-Cys-D-Lys-D-Lys-D-Trp-D-Lys-D-Met-D-Arg-D-Arg-D-Asn-D-Gln-D-Phe-D-Trp-D-Ile-D-Lys-D-Ile-D-Gln-D-Arg-NH2)succinimido]benzoyl}doxorubicin”: the “final HPLC purity” value under setting [1] is “purity>95%”.

For “H-Arg-Gln-Ile-Lys-Ile-Trp-Phe-Gln-Asn-Arg-Arg-Met-Lys-Trp-Lys-Lys-OH (SEQ ID No. 1)”, the “crude HPLC purity” value (whole synthesis, analytical RP-HPLC, Vydac 218TP54, scale 0.25 mmol) is over 90%.

For “H-CRRMKWKKC-NH2 (cysteine pairing not given here)”, the “final HPLC purity” value under setting [2] was “purity>99%”.
